Experimental data from PubChem BioAssay.
Several values for one entry are separate records, joined by “and”; a condition that tells them apart may be missing. Equal entries are not always repeated. The list shows a part of the results. Potency and affinity values are given separately. The source made no clear call on entries shown without one.

Key:
[1] = Drosophila SCA1 whole organism dose response for polyglutamine toxicity reduction (AID 1595); conditions: Drosophila SCA1 polyglutamine model, at 1 µM, stronger effect = higher value
[2] = PubChem AID 1597; conditions: Drosophila SCA1 polyglutamine model, at 1 µM, stronger effect = higher value

| SMILES | suppression of toxicity [1] | suppression of toxicity [2] |
| --- | --- | --- |
| CC1=C(/C=C/C(C)=C/C=C/C(C)=C/CO)C(C)(C)CCC1 | 1.43 | 8.57 |
| CC12CC[C@@H]3c4ccc(O)cc4CCC3[C@@H]1CCC2=O (some centres undefined) | 11.4 | 2.86 |
| CCN(CCCCOC(=O)c1ccc(OC)c(OC)c1)C(C)Cc1ccc(OC)cc1 (centres undefined) | 4.29 | 4.29 |
| CCCCOC(=O)c1ccc(N)cc1 | 0 | 0.715 |
| OCCN1CCN(CCCN2c3ccccc3Sc3ccc(Cl)cc32)CC1 | 1.43 | 1.43 |
| NC(Cn1ccc(=O)c(O)c1)C(=O)O (centres undefined) | 0 | 0 |
| COC(=O)/C(=C1\OC(=O)C(c2ccccc2)C1=O)c1ccccc1 (centres undefined) | 0 | 0.715 |
| COc1ccc([C@@H]2CC(=O)c3c(O)cc(O)cc3O2)cc1O | 0 | 0 |
| Cc1c(N)c(=O)n(-c2ccccc2)n1C | 0 | 0.715 |
| O=C(O)c1cccnc1C(=O)O | 2.85 | 5.71 |
| CON | 1.43 | 16.4 |
| COc1ccc2cc([C@H](C)C(=O)O)ccc2c1 | 0 | 10 |
| COc1ccc(-c2coc3cc(O)cc(O)c3c2=O)cc1 | 0 | 0 |
| C[C@H]1O[C@@H](O[C@H]2[C@@H](O)C[C@H](O[C@H]3[C@@H](O)C[C@H](O[C@H]4CC[C@]5(C)C6C[C@@H](O)[C@]7(C)[C@@H](C8=CC(=O)OC8)CC[C@]7(O)C6CC[C@@H]5C4)O[C@@H]3C)O[C@@H]2C)C[C@H](O)[C@@H]1O (some centres undefined) | 0 | 2.86 |
| COc1c(OC)c2occc2c2oc(=O)ccc12 | 1.43 | 0.715 |
| CC[C@H]1OC(=O)[C@H](C)[C@@H](O[C@H]2C[C@@](C)(OC)[C@@H](O)[C@H](C)O2)[C@H](C)[C@@H](O[C@@H]2O[C@H](C)C[C@H](N(C)C)[C@H]2O)[C@](C)(O)C[C@@H](C)C(=O)[C@H](C)[C@@H](O)[C@]1(C)O | 1.43 and 4.29 | 7.14 and 2.86 and 2.15 |
| O=c1c(-c2ccc(O)cc2)coc2cc(O)ccc12 | 0 | 1.43 |
| CCCCN1CCCCC1C(=O)Nc1c(C)cccc1C (centres undefined) | 2.85 | 5 |
| Nc1ccc(C(=O)NCC(=O)O)cc1 | 4.29 | 10 |
| CC(=O)c1c(O)c(C)c(O)c2c1OC1=CC(=O)C(C(C)=O)C(=O)C12C (centres undefined) | 0 | 0.715 |
| O=c1cc(CO)occ1O | 11.4 | 11.4 |
| O=C1c2cccc(O)c2C(=O)c2c(O)cccc21 | 2.85 | 2.85 |
